This is an account of results in PMC12436307.

The assay has as its target T1, LONESOME HIGHWAY (LHW) (Arabidopsis thaliana) (UniProt Q9XIN0).
T1 sequence: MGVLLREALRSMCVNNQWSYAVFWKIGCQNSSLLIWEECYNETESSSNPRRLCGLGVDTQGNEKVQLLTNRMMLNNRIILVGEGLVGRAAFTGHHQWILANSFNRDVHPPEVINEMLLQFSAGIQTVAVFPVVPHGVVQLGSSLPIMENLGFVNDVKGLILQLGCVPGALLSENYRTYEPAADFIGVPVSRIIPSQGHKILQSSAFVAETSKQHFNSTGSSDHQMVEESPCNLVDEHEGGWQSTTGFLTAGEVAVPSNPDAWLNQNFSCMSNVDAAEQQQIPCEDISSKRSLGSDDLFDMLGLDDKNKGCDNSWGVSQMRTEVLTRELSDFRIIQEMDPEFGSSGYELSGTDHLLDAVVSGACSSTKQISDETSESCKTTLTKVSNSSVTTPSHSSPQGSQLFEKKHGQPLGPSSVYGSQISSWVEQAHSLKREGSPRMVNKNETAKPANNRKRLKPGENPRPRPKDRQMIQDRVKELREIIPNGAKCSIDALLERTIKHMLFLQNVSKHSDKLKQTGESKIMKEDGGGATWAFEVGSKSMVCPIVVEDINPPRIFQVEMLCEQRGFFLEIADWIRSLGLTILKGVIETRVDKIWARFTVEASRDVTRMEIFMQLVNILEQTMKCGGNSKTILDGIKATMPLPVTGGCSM
Description: two-hybrid; Matchmaker Gold Yeast Two-Hybrid System; pGADT7 and pGBKT7 fusions; growth on SD -Leu -Trp -His -Ade with 3 mM 3AT, 30°C for 3 days.

Results are given in words; binding and its absence hold for the method and conditions named. A result given as binding can be weak or reduced; the word gives no strength.

In the case of SACL1 (Arabidopsis thaliana), the binding result was “binds”.
With SACL2 (Arabidopsis thaliana) the entry was “binds”; with SACL3 (Arabidopsis thaliana), “binds”.
